Measured values from the supplement of paper PMC8728848.
Some of the results follow.

Key:
Assay in all cases: glycan array binding signal (z-score within array); higher = stronger binding
Conditions in all cases: glycan notation: IUPAC condensed, linker removed
[1] = molecular target: Neu5Ac(a2-3)Gal(b1-3)GlcNAc(b1-2)Man
Summary of the method: (§1)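 The binding signal is a Z-score computed within each array and averaged over linkers. Arrays of the same protein sequence at different concentrations or buffers were also averaged together. Data originate from 3228 arrays in the Consortium for Functional Glycomics database, kept only where the protein sequence was available.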

[2] = molecular target: Neu5Ac(a2-3)Gal(b1-3)GlcNAc(b1-2)Man(a1-3)[GlcNAc(b1-4)][Neu5Ac(a2-3)Gal(b1-3)GlcNAc(b1-2)Man(a1-6)]Man(b1-4)GlcNAc(b1-4)GlcNAc
Summary of the method: as §1

[3] = molecular target: Neu5Ac(a2-3)Gal(b1-3)GlcNAc(b1-2)Man(a1-3)[Neu5Ac(a2-3)Gal(b1-3)GlcNAc(b1-2)Man(a1-6)]Man(b1-4)GlcNAc(b1-4)GlcNAc
Summary of the method: as §1

[4] = molecular target: Neu5Ac(a2-3)Gal(b1-3)GlcNAc(b1-2)[Neu5Ac(a2-3)Gal(b1-3)GlcNAc(b1-4)]Man(a1-6)[Neu5Ac(a2-3)Gal(b1-3)GlcNAc(b1-2)Man(a1-3)]Man(b1-4)GlcNAc(b1-4)GlcNAc
Summary of the method: as §1

[5] = molecular target: Neu5Ac(a2-3)Gal(b1-3)GlcNAc(b1-3)Gal(b1-3)GlcNAc
Summary of the method: as §1

[6] = molecular target: Neu5Ac(a2-3)Gal(b1-3)GlcNAc(b1-3)Gal(b1-4)GlcNAc
Summary of the method: as §1

[7] = molecular target: Neu5Ac(a2-3)Gal(b1-3)GlcNAc(b1-3)GalNAc
Summary of the method: as §1

[8] = molecular target: Neu5Ac(a2-3)Gal(b1-3)GlcNAc(b1-6)GalNAc
Summary of the method: as §1

[9] = molecular target: Neu5Ac(a2-3)Gal(b1-3)GlcNAc6S
Summary of the method: as §1

[10] = molecular target: Neu5Ac(a2-3)Gal(b1-3)[Fuc(a1-4)]GlcNAc
Summary of the method: as §1

[11] = molecular target: Neu5Ac(a2-3)Gal(b1-3)[Fuc(a1-4)]GlcNAc(b1-3)Gal(b1-3)[Fuc(a1-4)]GlcNAc
Summary of the method: as §1

[12] = molecular target: Neu5Ac(a2-3)Gal(b1-3)[Fuc(a1-4)]GlcNAc(b1-3)Gal(b1-4)[Fuc(a1-3)]GlcNAc
Summary of the method: as §1

[13] = molecular target: Neu5Ac(a2-3)Gal(b1-3)[GlcNAc(b1-6)]GalNAc
Summary of the method: as §1

[14] = molecular target: Neu5Ac(a2-3)Gal(b1-3)[Neu5Ac(a2-6)]GalNAc
Summary of the method: as §1

[15] = molecular target: Neu5Ac(a2-3)Gal(b1-3)[Neu5Ac(a2-6)]GlcNAc(b1-3)[Fuc(a1-3)[Gal(b1-4)]GlcNAc(b1-6)]Gal(b1-4)Glc
Summary of the method: as §1

[16] = molecular target: Neu5Ac(a2-3)Gal(b1-3)]Neu5Ac(a2-3)Gal(b1-4)]GlcNAc
Summary of the method: as §1

Neu5Ac(a2-3)Gal(b1-4)Glc = molecular target: Neu5Ac(a2-3)Gal(b1-4)Glc
Summary of the method: as §1

[17] = molecular target: Neu5Ac(a2-3)Gal(b1-4)GlcNAc
Summary of the method: as §1

[18] = molecular target: Neu5Ac(a2-3)Gal(b1-4)GlcNAc(b1-2)Man
Summary of the method: as §1

[19] = molecular target: Neu5Ac(a2-3)Gal(b1-4)GlcNAc(b1-2)Man(a1-3)[GlcNAc(b1-4)][Neu5Ac(a2-3)Gal(b1-4)GlcNAc(b1-2)Man(a1-6)]Man(b1-4)GlcNAc(b1-4)GlcNAc
Summary of the method: as §1

[20] = molecular target: Neu5Ac(a2-3)Gal(b1-4)GlcNAc(b1-2)Man(a1-3)[Neu5Ac(a2-3)Gal(b1-4)GlcNAc(b1-2)Man(a1-6)]Man(b1-4)GlcNAc(b1-4)GlcNAc
Summary of the method: as §1

[21] = molecular target: Neu5Ac(a2-3)Gal(b1-4)GlcNAc(b1-2)Man(a1-3)[Neu5Ac(a2-3)Gal(b1-4)GlcNAc(b1-2)Man(a1-6)]Man(b1-4)GlcNAc(b1-4)[Fuc(a1-6)]GlcNAc
Summary of the method: as §1

[22] = molecular target: Neu5Ac(a2-3)Gal(b1-4)GlcNAc(b1-2)Man(a1-3)[Neu5Ac(a2-6)Gal(b1-4)GlcNAc(b1-2)Man(a1-6)]Man(b1-4)GlcNAc(b1-4)GlcNAc
Summary of the method: as §1

[23] = molecular target: Neu5Ac(a2-3)Gal(b1-4)GlcNAc(b1-2)[Neu5Ac(a2-3)Gal(b1-4)GlcNAc(b1-4)]Man(a1-3)[GlcNAc(b1-4)][Neu5Ac(a2-3)Gal(b1-4)GlcNAc(b1-2)[Neu5Ac(a2-3)Gal(b1-4)GlcNAc(b1-6)]Man(a1-6)]Man(b1-4)GlcNAc(b1-4)GlcNAc
Summary of the method: as §1

[24] = molecular target: Neu5Ac(a2-3)Gal(b1-4)GlcNAc(b1-2)[Neu5Ac(a2-3)Gal(b1-4)GlcNAc(b1-4)]Man(a1-3)[GlcNAc(b1-4)][Neu5Ac(a2-3)Gal(b1-4)GlcNAc(b1-4)Man(a1-6)]Man(b1-4)GlcNAc(b1-4)GlcNAc
Summary of the method: as §1

[25] = molecular target: Neu5Ac(a2-3)Gal(b1-4)GlcNAc(b1-2)[Neu5Ac(a2-3)Gal(b1-4)GlcNAc(b1-6)]Man(a1-6)[Neu5Ac(a2-3)Gal(b1-4)GlcNAc(b1-2)Man(a1-3)][GlcNAc(b1-4)]Man(b1-4)GlcNAc(b1-4)GlcNAc
Summary of the method: as §1

[26] = molecular target: Neu5Ac(a2-3)Gal(b1-4)GlcNAc(b1-3)Gal
Summary of the method: as §1

[27] = molecular target: Neu5Ac(a2-3)Gal(b1-4)GlcNAc(b1-3)Gal(b1-3)GlcNAc
Summary of the method: as §1

[28] = molecular target: Neu5Ac(a2-3)Gal(b1-4)GlcNAc(b1-3)Gal(b1-4)GlcNAc
Summary of the method: as §1

[29] = molecular target: Neu5Ac(a2-3)Gal(b1-4)GlcNAc(b1-3)Gal(b1-4)GlcNAc(b1-2)Man(a1-3)[Neu5Ac(a2-3)Gal(b1-4)GlcNAc(b1-3)Gal(b1-4)GlcNAc(b1-2)Man(a1-6)]Man(b1-4)GlcNAc(b1-4)GlcNAc
Summary of the method: as §1

[30] = molecular target: Neu5Ac(a2-3)Gal(b1-4)GlcNAc(b1-3)Gal(b1-4)GlcNAc(b1-3)Gal(b1-4)GlcNAc
Summary of the method: as §1

[31] = molecular target: Neu5Ac(a2-3)Gal(b1-4)GlcNAc(b1-3)Gal(b1-4)GlcNAc(b1-3)Gal(b1-4)GlcNAc(b1-2)Man(a1-3)[Neu5Ac(a2-3)Gal(b1-4)GlcNAc(b1-3)Gal(b1-4)GlcNAc(b1-3)Gal(b1-4)GlcNAc(b1-2)Man(a1-6)]GalNAc
Summary of the method: as §1

[32] = molecular target: Neu5Ac(a2-3)Gal(b1-4)GlcNAc(b1-3)Gal(b1-4)GlcNAc(b1-3)GalNAc
Summary of the method: as §1

[33] = molecular target: Neu5Ac(a2-3)Gal(b1-4)GlcNAc(b1-3)Gal(b1-4)GlcNAc(b1-3)[Neu5Ac(a2-3)Gal(b1-4)GlcNAc(b1-3)Gal(b1-4)GlcNAc(b1-6)]GalNAc
Summary of the method: as §1

[34] = molecular target: Neu5Ac(a2-3)Gal(b1-4)GlcNAc(b1-3)Gal(b1-4)GlcNAc(b1-6)[Gal(b1-3)]GalNAc
Summary of the method: as §1

[35] = molecular target: Neu5Ac(a2-3)Gal(b1-4)GlcNAc(b1-3)Gal(b1-4)[Fuc(a1-3)]GlcNAc
Summary of the method: as §1

[36] = molecular target: Neu5Ac(a2-3)Gal(b1-4)GlcNAc(b1-3)GalNAc
Summary of the method: as §1

[37] = molecular target: Neu5Ac(a2-3)Gal(b1-4)GlcNAc(b1-3)[Neu5Ac(a2-3)Gal(b1-4)GlcNAc(b1-6)]GalNAc
Summary of the method: as §1

B1: LF82 (Escherichia coli) (protein)
chain: ADWGPCRTASGDPFIFVTSFTKNIQNPTDNVTGQTYPDFYQWALGDKYSGVCECPSPNPTEARPTLYKTESTLAAGHNSTYFKITNNLEVSTRVYIANVGNVQVPFINKSNSQPGRECDQPTFGWTTGSKGQLSLYIAKPFVGEQNIPQTIIVSVFGTKKENVYSSVPISQVLLSGKVTVTQGCELAAGTSLDIDFGEYQAHDFKGRTGQPPQNVQKIQKELTFNCTNISDGVHIYLSLEGTPNAAYPSAISLGNADVGAVIEDGKGNILKPNDSNSLLEMNPGSLYEYVKRKVTTTITAYPVSTTGKLPAAGDYSGVATMHVELDGGGGGGGGGGATTDLGAKGTLKFSLKISQGHHHHHH
- glycan array binding signal (z-score) [1]: -0.396
- glycan array binding signal (z-score) [2]: -0.92
- glycan array binding signal (z-score) [3]: 0.215
- glycan array binding signal (z-score) [4]: 4.88
- glycan array binding signal (z-score) [5]: -0.469
- glycan array binding signal (z-score) [6]: 0.773
- glycan array binding signal (z-score) [7]: -1.31
- glycan array binding signal (z-score) [8]: -0.373
- glycan array binding signal (z-score) [9]: -0.44
- glycan array binding signal (z-score) [10]: 0.215
- glycan array binding signal (z-score) [11]: -0.355
- glycan array binding signal (z-score) [12]: -0.501
- glycan array binding signal (z-score) [13]: -0.063
- glycan array binding signal (z-score) [14]: 0.053
- glycan array binding signal (z-score) [15]: 2.35
- glycan array binding signal (z-score) [16]: -0.87
- glycan array binding signal (z-score) (Neu5Ac(a2-3)Gal(b1-4)Glc): 0.503
- glycan array binding signal (z-score) [17]: -0.725
- glycan array binding signal (z-score) [18]: 1.36
- glycan array binding signal (z-score) [19]: -0.202
- glycan array binding signal (z-score) [20]: -0.284
- glycan array binding signal (z-score) [21]: 1.48
- glycan array binding signal (z-score) [22]: 0.122
- glycan array binding signal (z-score) [23]: 1.62
- glycan array binding signal (z-score) [24]: 2.08
- glycan array binding signal (z-score) [25]: 0.16
- glycan array binding signal (z-score) [26]: -0.212
- glycan array binding signal (z-score) [27]: -1.05
- glycan array binding signal (z-score) [28]: 0.028
- glycan array binding signal (z-score) [29]: -0.541
- glycan array binding signal (z-score) [30]: -1.09
- glycan array binding signal (z-score) [31]: -0.239
- glycan array binding signal (z-score) [32]: 0.079
- glycan array binding signal (z-score) [33]: 1.1
- glycan array binding signal (z-score) [34]: -1.48
- glycan array binding signal (z-score) [35]: -0.125
- glycan array binding signal (z-score) [36]: 0.002
- glycan array binding signal (z-score) [37]: -0.974
